# The campaign covered roughly 330,000 compounds. About 7,700 (2.3%) were called active. Inconclusive results, whose numbers are uncertain, are shown with a selection of clear calls. Calls come from the whole dose curve; as a rule, active = well fitted inhibition curve with a large enough effect; inconclusive = small, poorly fitted or top-dose-only effect, or effect the other way; inactive = flat fitted curve, though single readings scatter. Potencies beside an inconclusive call are fits to weak or partial responses and may not hold up.
# Assay: qHTS screen for small molecules that inhibit ELG1-dependent DNA repair in human embryonic kidney (HEK293T) cells expressing luciferase-tagged ELG1; note: nearly all actives have a fitted effect of over 55% in size
# Conditions: HEK293T ELG1-luciferase reporter, luminescence, 16 h, DNA damage induced by 5-fluorouridine; activity change, negative = inhibition: at 46.1 µM (top of the series)
# Method in brief: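 Overnight (16 hr) co-exposure of 2,000 cells/well to 5-fluorouridine and compound at 37 °C preceded detection. Luciferase was quantified via ONE-Glo luminescence; loss of signal denotes inhibition.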
# % is set by controls: 0 for no effect and ±100 for the full control effect; potency is the fitted concentration of half-maximal effect.
Compound,Potency,"activity change, negative = inhibition"
O=C(Nc1ccc2c(c1)OCO2)c1n[nH]c(=O)c2ccccc12,"inconclusive: 8.2 µM [activator, partial curve]",
Cc1ccc(C)c(/C=C(\C(=O)O)c2ccc(S(=O)(=O)N3CCCCC3)s2)c1,"inconclusive: 20.6 µM [inhibitor, single point]",
CCN(C(=O)c1ccc(NC(C)=O)cc1)c1ccccc1C,"inconclusive: 29.1 µM [activator, single point]",
COC(C[C@H](O)C[C@H](O)[C@H](C)OCc1ccccc1)OC,,inactive: 20.8%
O=C(Nc1ccc2c(c1)OCO2)c1cc(Cl)ccn1,"inconclusive: 9.2 µM [activator, partial curve, poor fit]",
Cc1ccc(O)c(NC(=O)c2noc3c2CCCCC3)c1,"inconclusive: 2.59 µM [activator, full curve]",
CC1(C)CCSC(/C=C/c2ccccc2)=N1,"inconclusive: 29.1 µM [inhibitor, single point]",
COc1ccccc1C(=O)OCCCN=C1NS(=O)(=O)c2ccccc21,,inactive: 5.31%
CC(=O)Nc1ccc(S(=O)(=O)NC(C)C(=O)NCC(c2ccco2)N2CCCCC2)cc1 (configuration not stated),,inactive: 19.7%
CCOc1ccc(-n2nnnc2-c2nc3ccccc3s2)cc1,"inconclusive: 4.61 µM [activator, partial curve]",
COc1ccc(NC(=O)CN2C(=O)NC(C)(c3ccc4c(c3)OCCO4)C2=O)cc1S(N)(=O)=O (configuration not stated),,inactive: 11.7%
Cc1cccc(-c2nc(C#N)c(N3CCCCC3)o2)c1,"inconclusive: 11.6 µM [activator, partial curve]",
CCOC(=O)c1cnc2c(C)cccc2c1NCCc1ccc(OC)c(OC)c1,active: 23.1 µM,
Cc1cc(C)nc(NC2=NC3CCCCC3N2)n1 (configuration not stated),"inconclusive: 23.1 µM [inhibitor, single point]",
Cc1ccc(N2CCN(CCc3nc4cc(NC(=O)c5ccco5)ccc4n3C)CC2)cc1,"inconclusive: 20.6 µM [inhibitor, partial curve]",
O=C(c1cn(Cc2ccccc2)nc1-c1cccnc1)N1CCN(Cc2c(F)cccc2Cl)CC1,active: 9.2 µM,
O=C(C[C@H]1C/C=C\CC[C@@H](Cc2ccc(F)cc2)C(=O)OC[C@H]2CCCN2C1=O)N[C@H](CO)Cc1ccccc1,active: 23.1 µM,
CCS(=O)(=O)c1ccc2oc(SCC(=O)NCCc3ccccc3)nc2c1,"inconclusive: 29.1 µM [inhibitor, single point]",
COc1ccc(C(=O)N2CCN(c3ncnc4c(-c5ccccc5)nsc34)CC2)cc1,"inconclusive: 6.51 µM [inhibitor, single point]",
CCn1c(=NC(=O)CN2C(=O)CCC2=O)sc2c(OC)ccc(OC)c21,,inactive: -7.51%
CC(C)CN(C(=O)C(C)N1C(=O)c2ccccc2C1=O)c1c(N)n(Cc2ccccc2)c(=O)[nH]c1=O (configuration not stated),,inactive: 0.89%
Cc1c(N=NC2=C(O)CCCC2=O)c(=O)n(-c2ccccc2)n1C,,inactive: 8.89%
COc1ccc(CN2CCN(C(=O)c3c(-c4ccccc4)noc3C)CC2)cc1F,"inconclusive: 18.3 µM [inhibitor, single point]",
Cc1ccc(CNC(=O)C(=O)c2cn(CC(=O)N3CCOCC3)c3ccccc23)cc1,"inconclusive: 7.3 µM [activator, partial curve, poor fit]",

Compound,Potency,"activity change, negative = inhibition"
O=C(Nc1ccccc1)c1ccc(-n2cnnn2)cc1,"inconclusive: 14.6 µM [activator, partial curve]",
Cc1nn(C)cc1C1C2=C(CC(C)(C)CC2=O)OC2=C1C(=O)CC(C)(C)C2,"inconclusive: 18.4 µM [activator, partial curve, poor fit]",
Cc1[nH]c2ccccc2c1C(=O)COC(=O)c1ccccc1O,"inconclusive: 9.2 µM [activator, partial curve]",
CCOC(=O)c1sc(N)c(C(=O)OCC)c1C,"inconclusive: 20.6 µM [activator, partial curve]",
FC(F)(F)c1cc(-c2ccco2)nc(NCCc2ccccc2)n1,"inconclusive: 6.51 µM [activator, partial curve, poor fit]",
CCCN1C(=O)SC(CC(=O)Nc2ccc(Br)cc2)C1=O (configuration not stated),,inactive: 16.9%
Cc1nnsc1C(=O)N1CCCC(Nc2ccc(F)c(F)c2)C1 (configuration not stated),,inactive: 17.9%
Cc1occc1-c1nnc(SCC(=O)Nc2ccccc2N2CCCCC2)n1C,"inconclusive: 14.6 µM [inhibitor, partial curve]",
NS(=O)(=O)c1ccc(Sc2ccccn2)c([N+](=O)[O-])c1,"inconclusive: 0.0082 µM [inhibitor, full curve, poor fit]",
CC(C)c1ccc(NC(=O)C2CCN(S(=O)(=O)c3ccc4c(c3)C(C)(C)C(=O)N4C)CC2)cc1,"inconclusive: 18.3 µM [inhibitor, single point]",
COc1cc2c(cc1OC)C(c1ccc([N+](=O)[O-])cc1)NC(=O)C2 (configuration not stated),,inactive: 29.5%
CCc1c(C)nc2c(OC)cccc2c1Cl,"inconclusive: 6.51 µM [inhibitor, single point]",
c1ccc2cc(OCc3nc4ccccc4[nH]3)ccc2c1,"inconclusive: 2.06 µM [activator, partial curve]",
CCn1c(N)c(C(=O)COC(=O)CCc2nc3ccccc3c(=O)[nH]2)c(=O)[nH]c1=O,,inactive: 15.8%
Cc1ccc(CSCCC(=O)NCCC2=CCCCC2)cc1,"inconclusive: 20.6 µM [activator, single point]",
COc1cccc2c1nc(C)c1cc(C)oc12,"inconclusive: 14.6 µM [activator, partial curve]",
O=C(COC(=O)c1ccccc1)NC1CCCC1,,inactive: 21.6%
CCOCCCNC(=O)CCC(=O)NNc1nc2ccccc2c2nc(-c3ccccc3)nn12,"inconclusive: 20.6 µM [inhibitor, single point]",
Cc1ccccc1[C@]1(C)ON(c2ccccc2C(F)(F)F)C1=O,"inconclusive: 29.1 µM [inhibitor, single point]",
COc1cccc(C2=CC(=O)C[C@H](c3ccc(F)cc3)C2)c1OC,"inconclusive: 0.116 µM [activator, full curve, poor fit]",
COc1ccc(-c2oc3ncnc(NCCCN4CCOCC4)c3c2-c2ccc(OC)cc2)cc1,active: 16.4 µM,
CC(C)n1cc(/C=N/Nc2ccc(Cl)c(C(=O)O)c2)c2ccccc21,"inconclusive: 8.2 µM [activator, partial curve]",
O=C(N/N=C/c1cc(Br)cc(Br)c1O)c1cccc(S(=O)(=O)N2CCOCC2)c1,"inconclusive: 2.06 µM [inhibitor, partial curve]",
C/C(=N\NC(=S)Nc1ccc(C)cc1)c1cc2ccccc2o1,"inconclusive: 16.4 µM [inhibitor, single point]",

# Retrieved one by one from above:
Compound,Potency,"activity change, negative = inhibition"
CC(C)c1ccc(NC(=O)C2CCN(S(=O)(=O)c3ccc4c(c3)C(C)(C)C(=O)N4C)CC2)cc1,"inconclusive: 18.3 µM [inhibitor, single point]",
c1ccc2cc(OCc3nc4ccccc4[nH]3)ccc2c1,"inconclusive: 2.06 µM [activator, partial curve]",
Cc1occc1-c1nnc(SCC(=O)Nc2ccccc2N2CCCCC2)n1C,"inconclusive: 14.6 µM [inhibitor, partial curve]",
COc1ccc(NC(=O)CN2C(=O)NC(C)(c3ccc4c(c3)OCCO4)C2=O)cc1S(N)(=O)=O (configuration not stated),,inactive: 11.7%

# (more compounds)

Compound,Potency,"activity change, negative = inhibition"
CC(C(=O)N1CCCCC1)n1ncn2cccc2c1=O (configuration not stated),,inactive: 3.05%
Cc1ccc(C)c(NC(=O)c2cc3c([nH]c4ccccc43)c(C)n2)c1,"inconclusive: 29.1 µM [activator, single point]",
COc1ccc(OCC(O)CN2CCCC2)cc1 (configuration not stated),,inactive: -17.7%
CN(Cc1ccc2c(c1)OCO2)C(=O)c1cc(-c2ccccc2)c(N2CCOCC2)s1,"inconclusive: 29.1 µM [inhibitor, single point]",
CCOC(=O)c1cc(CNC(=O)c2c(C)oc3c2CCCC3)c(C)o1,"inconclusive: 16.4 µM [inhibitor, single point]",
O=C(NCc1ccco1)/C(=C\c1ccccc1)NC(=O)c1ccccc1,,inactive: -1.41%
O=C(NN1C(=O)c2ccccc2NC1c1ccc([N+](=O)[O-])o1)c1ccc([N+](=O)[O-])cc1 (configuration not stated),"inconclusive: 6.51 µM [activator, single point]",
COC(=O)c1cc(Cl)c(NC(=O)/C=C/c2ccc(OC)c(OC)c2)cc1OC,"inconclusive: 4.61 µM [inhibitor, single point]",
CN(CC(=O)Nc1ccccc1Br)CC(=O)NC(c1ccccc1)c1ccccc1,,inactive: 3.53%
COC(=O)c1cc(C)nc2c1C(=O)C(=O)C=C2N1CCOCC1,active: 5.17 µM,
CC(C)(C)c1ccc(OCC(=O)N2CCN(c3ncccn3)CC2)cc1,,inactive: 4.63%
COC(=O)C1(C)Nc2ccccc2C(=O)N1c1ccccc1C (configuration not stated),"inconclusive: 1.3 µM [inhibitor, single point]",
Cc1cccc(NC(=S)NCc2ccco2)c1C,,inactive: -8.21%
CCOC(=O)CSc1nc(N)c(C#N)c(-c2cccs2)c1C#N,,inactive: 3.12%
C[C@H](CO)N1C[C@H](C)[C@@H](CN(C)C(=O)Nc2ccc(C(F)(F)F)cc2)Oc2ccc(NS(=O)(=O)c3ccccc3)cc2C1=O,,inactive: -0.804%
CCOc1ccc(Oc2ccccc2NC(=O)CCNC(C)=O)cc1,,inactive: 0%
COc1ccc(/C(C)=N/NC(=O)Cn2nc([N+](=O)[O-])cc2C)cc1,,inactive: -15.3%
O=S(=O)(Nc1cccc(-c2ccc(N3CCCCCC3)nn2)c1)c1ccccc1F,"inconclusive: 14.6 µM [activator, partial curve]",
O=c1oc2ccccc2nc1/C=C(O)/C=C\c1ccccc1,,inactive: 32.7%
CCC(CC)C(=O)OCC(=O)Nc1cc(OC)c([N+](=O)[O-])cc1C,"inconclusive: 18.4 µM [inhibitor, partial curve]",
COc1ccc(S(=O)(=O)n2cnc3cc(C)c(C)cc32)cc1C,"inconclusive: 29.1 µM [inhibitor, single point]",
Cc1cccc(CC2CC(=O)N(C3CCCCC3)C2=O)c1 (configuration not stated),,inactive: 1.97%
CC(C)CCN(C(=O)c1ccc(Br)cc1)c1c(N)n(Cc2ccccc2)c(=O)[nH]c1=O,,inactive: -3.12%
CCCNC(=S)NC1CC2CCC(C1)N2Cc1ccccc1 (configuration not stated),,inactive: 5.95%
